The values that follow come from publication PMC4383067.

Sequences of proteins named here, by UniProt entry; tags and fusion partners are left off. Residues count along the entry.
UniProt P22303, 32-614: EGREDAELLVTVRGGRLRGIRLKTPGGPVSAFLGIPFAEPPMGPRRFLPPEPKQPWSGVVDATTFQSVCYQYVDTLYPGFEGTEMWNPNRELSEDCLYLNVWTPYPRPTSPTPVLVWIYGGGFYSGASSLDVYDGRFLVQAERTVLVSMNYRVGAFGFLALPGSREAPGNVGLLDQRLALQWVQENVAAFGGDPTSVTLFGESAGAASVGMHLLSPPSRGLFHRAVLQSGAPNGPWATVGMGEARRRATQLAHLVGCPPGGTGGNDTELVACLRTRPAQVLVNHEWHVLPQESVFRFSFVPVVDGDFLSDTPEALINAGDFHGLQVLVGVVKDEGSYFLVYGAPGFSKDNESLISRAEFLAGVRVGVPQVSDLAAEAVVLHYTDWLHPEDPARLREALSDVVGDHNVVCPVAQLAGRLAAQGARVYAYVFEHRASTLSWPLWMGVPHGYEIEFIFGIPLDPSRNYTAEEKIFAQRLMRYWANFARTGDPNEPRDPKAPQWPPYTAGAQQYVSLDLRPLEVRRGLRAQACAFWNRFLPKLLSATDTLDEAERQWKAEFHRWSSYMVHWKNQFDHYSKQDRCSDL

This assay has as its target Full-length human PrP (monomeric, recombinant) (human) (UniProt P04156). Kind of assay: static light scattering kinetics; both purified.

These are yes or no findings as the source states them, for the method shown. Some binding calls cover weakened binding; strength is not graded here.

With “Full-length human acetylcholinesterase (dimeric, recombinant) (from UniProt P22303 32-614) (enzyme)”, the binding result was “binds”.
